According to PMC3324470:

Biological target: T1, GAMETOPHYTE … 1 (GAF1/AtRPP30) (Arabidopsis thaliana) (UniProt F4JXF1)
T1 sequence: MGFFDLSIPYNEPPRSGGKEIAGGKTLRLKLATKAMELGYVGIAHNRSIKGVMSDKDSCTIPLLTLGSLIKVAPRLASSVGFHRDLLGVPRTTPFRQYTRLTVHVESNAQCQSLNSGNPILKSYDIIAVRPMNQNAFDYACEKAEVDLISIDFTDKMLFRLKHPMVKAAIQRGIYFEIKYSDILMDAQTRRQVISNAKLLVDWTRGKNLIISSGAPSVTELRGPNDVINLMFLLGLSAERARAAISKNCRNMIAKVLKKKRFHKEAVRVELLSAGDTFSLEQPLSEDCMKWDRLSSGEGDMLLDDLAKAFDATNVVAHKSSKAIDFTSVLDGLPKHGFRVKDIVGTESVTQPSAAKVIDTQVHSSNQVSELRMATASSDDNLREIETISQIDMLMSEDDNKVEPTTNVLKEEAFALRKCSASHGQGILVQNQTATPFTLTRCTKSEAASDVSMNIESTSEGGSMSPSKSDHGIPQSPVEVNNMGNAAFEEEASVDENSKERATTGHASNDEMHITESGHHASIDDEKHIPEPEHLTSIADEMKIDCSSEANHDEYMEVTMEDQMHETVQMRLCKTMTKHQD
Experiment: two-hybrid; pGADT7 and pGBKT7 constructs co-transformed in pairs into yeast AH109; cells adjusted to OD600=0.3, growth on SD/-Trp-Leu-His-Ade plates for 5 or 12 days at 28°C (SD/-Trp-Leu for 3 days as control)

Row | Substance | binding
1 | AtRMP1 (Arabidopsis homologue of RNase MRP subunit RMP1) | no binding
2 | AtRPR2 (Arabidopsis homologue of RNase P subunit RPR2) | no binding

These are yes or no findings as the source states them, for the method shown.
